Patent US20080118503A1
These are yes or no findings as the source states them, for the method shown. Some entries that bind do so weakly or less than the wild type.

Amino acid sequences for entries named in this document (tags omitted). Residues count along the entry.
UniProt P48357, residues 22-839: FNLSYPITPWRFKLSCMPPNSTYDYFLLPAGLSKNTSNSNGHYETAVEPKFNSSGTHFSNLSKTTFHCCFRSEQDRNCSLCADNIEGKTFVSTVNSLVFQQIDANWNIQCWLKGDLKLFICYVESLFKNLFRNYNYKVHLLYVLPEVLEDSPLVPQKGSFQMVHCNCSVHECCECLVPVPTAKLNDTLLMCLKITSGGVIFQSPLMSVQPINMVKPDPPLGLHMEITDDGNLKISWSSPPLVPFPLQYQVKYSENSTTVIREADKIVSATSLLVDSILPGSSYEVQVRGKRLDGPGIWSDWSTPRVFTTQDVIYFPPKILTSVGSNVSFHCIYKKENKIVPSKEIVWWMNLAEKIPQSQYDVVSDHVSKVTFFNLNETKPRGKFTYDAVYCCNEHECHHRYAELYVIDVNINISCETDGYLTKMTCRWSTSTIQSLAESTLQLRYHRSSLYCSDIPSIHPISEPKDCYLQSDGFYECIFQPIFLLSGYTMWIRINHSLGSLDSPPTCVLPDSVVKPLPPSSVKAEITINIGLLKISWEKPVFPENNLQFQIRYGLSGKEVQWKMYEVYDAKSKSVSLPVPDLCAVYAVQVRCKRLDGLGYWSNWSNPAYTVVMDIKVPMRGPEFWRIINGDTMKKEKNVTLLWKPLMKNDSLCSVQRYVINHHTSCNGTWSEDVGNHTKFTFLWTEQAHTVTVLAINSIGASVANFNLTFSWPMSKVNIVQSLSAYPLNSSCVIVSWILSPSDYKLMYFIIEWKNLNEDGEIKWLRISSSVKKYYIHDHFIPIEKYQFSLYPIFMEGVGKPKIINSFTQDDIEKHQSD
UniProt P48356, residues 22-839: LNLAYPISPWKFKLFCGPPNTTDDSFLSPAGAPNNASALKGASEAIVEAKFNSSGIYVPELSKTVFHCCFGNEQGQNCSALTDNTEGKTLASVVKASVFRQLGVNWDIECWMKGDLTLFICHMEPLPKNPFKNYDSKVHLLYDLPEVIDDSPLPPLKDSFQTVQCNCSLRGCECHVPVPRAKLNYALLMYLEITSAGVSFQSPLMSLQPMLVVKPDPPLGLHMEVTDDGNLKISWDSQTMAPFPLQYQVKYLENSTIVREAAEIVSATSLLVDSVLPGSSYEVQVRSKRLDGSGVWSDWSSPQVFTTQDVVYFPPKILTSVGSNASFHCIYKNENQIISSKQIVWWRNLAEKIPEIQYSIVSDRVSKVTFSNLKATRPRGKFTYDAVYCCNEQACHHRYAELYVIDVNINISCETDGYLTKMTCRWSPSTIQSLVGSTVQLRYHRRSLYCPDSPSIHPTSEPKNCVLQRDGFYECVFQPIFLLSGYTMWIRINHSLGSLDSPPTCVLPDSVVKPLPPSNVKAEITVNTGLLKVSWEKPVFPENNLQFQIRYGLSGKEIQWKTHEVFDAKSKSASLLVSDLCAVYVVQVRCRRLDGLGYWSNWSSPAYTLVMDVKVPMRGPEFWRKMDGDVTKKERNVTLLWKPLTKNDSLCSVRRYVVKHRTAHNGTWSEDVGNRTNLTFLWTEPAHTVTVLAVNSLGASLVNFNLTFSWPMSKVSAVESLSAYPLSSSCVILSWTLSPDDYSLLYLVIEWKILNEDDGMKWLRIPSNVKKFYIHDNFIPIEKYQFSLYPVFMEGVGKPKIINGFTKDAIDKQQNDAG
UniProt P41159, residues 22-167: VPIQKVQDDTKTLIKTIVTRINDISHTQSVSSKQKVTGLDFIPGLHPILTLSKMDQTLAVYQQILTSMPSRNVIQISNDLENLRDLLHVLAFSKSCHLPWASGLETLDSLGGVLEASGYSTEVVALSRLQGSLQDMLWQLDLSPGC

Assays:
[1] = molecular target: recombinant human leptin-R (human) (UniProt P48357); test: competition ELISA, coated human leptin-R, leptin varied against ZMC2 10 ng/ml
[2] = molecular target: recombinant human leptin-R (human) (UniProt P48357); test: competition ELISA, coated recombinant human leptin-R, leptin varied 0.1-10000 ng/ml against ZMC2 10 ng/ml
[3] = molecular target: recombinant mouse leptin-R (mouse) (UniProt P48356); test: competition ELISA, coated recombinant mouse leptin-R, leptin against ZMC2
[4] = molecular target: recombinant mouse leptin-R (mouse) (UniProt P48356); test: competition ELISA, coated mouse leptin-R, leptin against ZMC2

- binding [1]: binds
- binding [2]: binds
- binding [3]: binds
- binding [4]: binds
Substance: leptin (from UniProt P41159 22-167) (ligand)
